Laboratory results taken from the supplement of paper PMC4962491.
± gives the standard deviation of the averaged measurements. The list shows a part of the results, in another mix than the full data. This data set is noisy: repeats of one test often differ as much as different tests do.

Tested on: FaDu
Test: mitochondrial oxygen consumption rate normalised to cell number, Z score over the library; higher = higher oxygen consumption (negative = OCR reduction)
Conditions: treatment time 24 h, assay medium: 5 mM galactose, 5 mM pyruvate, 4 mM glutamine
Procedure: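 Primary screen: FaDu cells were incubated 24 h with Pharmakon 1600 / TDI oncology set compounds at 2 or 10 uM. Mitochondrial-specific OCR (basal minus 2 uM antimycin A) was measured on a Seahorse XF96 in assay medium with 5 mM galactose, 5 mM pyruvate and 4 mM glutamine, then corrected for Hoechst cell number and expressed as a Z score […]. Compounds that cut cell number by >66% were excluded. Two repeats.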

| Structure (SMILES) | mitochondrial oxygen consumption rate normalised (2 µM) | mitochondrial oxygen consumption rate normalised (10 µM) |
| --- | --- | --- |
| CCc1cccc2c3c([nH]c12)C(CC)(CC(=O)O)OCC3 (configuration not stated) | 1.44 ± 0.9 | – |
| Cc1noc(NS(=O)(=O)c2ccc(N)cc2)c1C | -1.15 ± 0.13 | – |
| CCCCC(=O)O[C@]1(C(=O)CO)CC[C@H]2[C@@H]3CCC4=CC(=O)CC[C@]4(C)[C@H]3[C@@H](O)C[C@@]21C | 0.0799 ± 0.29 | – |
| C[C@]12CC[C@@H]3c4ccc(O)cc4CC[C@H]3[C@@H]1C[C@@H](O)[C@@H]2O | 0.802 ± 0.44 | -0.347 ± 0.41 |
| CC(Oc1c(Cl)cccc1Cl)C1=NCCN1 (configuration not stated) | 1.6 ± 0.57 | – |
| CC1=C(CC(=O)O)c2cc(F)ccc2/C1=C\c1ccc([S+](C)[O-])cc1 (configuration not stated) | -0.844 ± 0.24 | – |
| Cn1nnnc1SCC1=C(C(=O)O)N2C(=O)[C@@H](NC(=O)[C@H](OC=O)c3ccccc3)[C@H]2SC1 | 0.421 ± 0.49 | 0.0513 ± 0.34 |
| CCOC(=O)[C@H](CCc1ccccc1)N[C@@H](C)C(=O)N1CCC[C@H]1C(=O)O | 0.482 ± 0.82 | – |
| CO/N=C(\C(=O)N[C@@H]1C(=O)N2C(C(=O)O)=C(C[N+]3(C)CCCC3)CS[C@H]12)c1csc(N)n1 | 0.126 ± 0.21 | – |
| O=S(=O)(O)CCCS(=O)(=O)O | 0.567 ± 1.1 | – |
| CC(=O)Nc1ccc(O)cc1 | 0.246 ± 0.076 | – |
| CC(=O)Oc1c(C)c(C)c2c(c1C)CCC(C)(CCCC(C)CCCC(C)CCCC(C)C)O2 (stereo not drawn) [alpha-TOCHOPHERYL ACETATE] | 0.685 ± 0.49 | -0.281 ± 0.21 |
| Nc1cccc2c1CN(C1CCC(=O)NC1=O)C2=O (configuration not stated) [Lenalidomide] | 0.752 ± 0.3 | – |
| CCCCC(CC)CN=C(N)N=C(N)NCCCCCCNC(N)=NC(N)=NCC(CC)CCCC (configuration not stated) | -1.08 ± 0.56 | – |
| COc1ccc2[nH]c([S+]([O-])Cc3ncc(C)c(OC)c3C)nc2c1 (configuration not stated) | 0.168 ± 0.089 | – |
| CC(C)COC(=O)c1ccc(N)cc1 | -0.241 ± 0.33 | – |
| Cc1ccccc1N1C(=O)c2cc(S(N)(=O)=O)c(Cl)cc2NC1C (configuration not stated) | -0.0812 ± 0.29 | – |
| Cc1cc(-n2c(=O)[nH]c(=O)n(C)c2=O)ccc1Oc1ccc(SC(F)(F)F)cc1 | -0.609 ± 0.28 | – |
| OCCOCCN1CCN(C(c2ccccc2)c2ccc(Cl)cc2)CC1 (configuration not stated) | -0.481 ± 0.9 | – |

Taken from the results shown, two compounds:

| Structure (SMILES) | mitochondrial oxygen consumption rate normalised (2 µM) | mitochondrial oxygen consumption rate normalised (10 µM) |
| --- | --- | --- |
| Cn1nnnc1SCC1=C(C(=O)O)N2C(=O)[C@@H](NC(=O)[C@H](OC=O)c3ccccc3)[C@H]2SC1 | 0.421 ± 0.49 | 0.0513 ± 0.34 |
| CCOC(=O)[C@H](CCc1ccccc1)N[C@@H](C)C(=O)N1CCC[C@H]1C(=O)O | 0.482 ± 0.82 | – |
